Test results: paper doi:10.1101/2020.04.03.023895
Read-outs that look alike come from different tables or passages of the source. Results are given in words; binding and its absence hold for the method and conditions named. In cells and extracts the contact can be indirect. Some binding calls cover weakened binding; strength is not graded here. For some of these results: Where a sequence is shown, tags or fusion partners need not be part of it. Blank lines part the entries; values can stand above or below the molecule they belong to.

Protein sequences, listed by entry. Tags and fused reporters are not part of them. Lines headed by an entry give the natural chain unless they say otherwise; changes in a name come on top.
UniProt P52168: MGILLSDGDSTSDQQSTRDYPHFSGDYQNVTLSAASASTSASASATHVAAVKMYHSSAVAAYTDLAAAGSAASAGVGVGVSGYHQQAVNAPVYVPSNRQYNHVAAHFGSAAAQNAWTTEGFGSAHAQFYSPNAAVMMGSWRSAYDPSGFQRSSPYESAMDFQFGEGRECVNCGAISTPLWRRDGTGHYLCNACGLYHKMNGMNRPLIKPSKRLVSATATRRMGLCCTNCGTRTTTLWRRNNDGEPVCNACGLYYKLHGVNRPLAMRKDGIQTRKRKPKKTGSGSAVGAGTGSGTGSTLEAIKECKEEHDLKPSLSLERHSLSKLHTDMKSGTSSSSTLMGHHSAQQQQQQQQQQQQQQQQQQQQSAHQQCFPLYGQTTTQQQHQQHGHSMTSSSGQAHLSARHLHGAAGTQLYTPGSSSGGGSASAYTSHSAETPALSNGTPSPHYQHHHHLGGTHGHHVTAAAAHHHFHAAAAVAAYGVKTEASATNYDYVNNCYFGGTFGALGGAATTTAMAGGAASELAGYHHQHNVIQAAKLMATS

Assays:
[1] = biological target: T1, full length GST-Med19 (Drosophila) (UniProt Q9VVL6); assay: pull-down
T1 sequence: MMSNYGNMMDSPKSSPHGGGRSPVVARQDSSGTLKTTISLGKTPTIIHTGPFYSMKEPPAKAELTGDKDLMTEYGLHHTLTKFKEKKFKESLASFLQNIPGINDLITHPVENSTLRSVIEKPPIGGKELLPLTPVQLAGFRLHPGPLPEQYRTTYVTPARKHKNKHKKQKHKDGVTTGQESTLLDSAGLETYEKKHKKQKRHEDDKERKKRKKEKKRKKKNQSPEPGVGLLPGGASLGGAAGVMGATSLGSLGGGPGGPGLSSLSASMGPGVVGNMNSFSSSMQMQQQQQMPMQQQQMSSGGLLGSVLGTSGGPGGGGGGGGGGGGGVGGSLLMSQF

Med19-VC (Drosophila) [2] = biological target: T2, Med19-VC (Drosophila) (UniProt Q9VVL6); assay: split reporter
T2 sequence: T1 sequence

[3] = biological target: T3, endogenous Drosophila Med19 (Drosophila (endogenous in S2 cells)) (UniProt Q9VVL6); assay: co-IP
T3 sequence: T1 sequence

Med19-VC (Drosophila) [4] = biological target: T2, Med19-VC (Drosophila); assay: split reporter; remark: listed apart in the source
[5] = biological target: T1, full length GST-Med19 (Drosophila); assay: pull-down; remark: listed apart in the source
[6] = biological target: full-length recombinant GST-Pnr (Drosophila) (UniProt P52168); assay: pull-down
[7] = biological target: T4, GST fusion of Med1 largest isoform A (Med1^A) (Drosophila) (UniProt Q9VP05); assay: pull-down
T4 sequence: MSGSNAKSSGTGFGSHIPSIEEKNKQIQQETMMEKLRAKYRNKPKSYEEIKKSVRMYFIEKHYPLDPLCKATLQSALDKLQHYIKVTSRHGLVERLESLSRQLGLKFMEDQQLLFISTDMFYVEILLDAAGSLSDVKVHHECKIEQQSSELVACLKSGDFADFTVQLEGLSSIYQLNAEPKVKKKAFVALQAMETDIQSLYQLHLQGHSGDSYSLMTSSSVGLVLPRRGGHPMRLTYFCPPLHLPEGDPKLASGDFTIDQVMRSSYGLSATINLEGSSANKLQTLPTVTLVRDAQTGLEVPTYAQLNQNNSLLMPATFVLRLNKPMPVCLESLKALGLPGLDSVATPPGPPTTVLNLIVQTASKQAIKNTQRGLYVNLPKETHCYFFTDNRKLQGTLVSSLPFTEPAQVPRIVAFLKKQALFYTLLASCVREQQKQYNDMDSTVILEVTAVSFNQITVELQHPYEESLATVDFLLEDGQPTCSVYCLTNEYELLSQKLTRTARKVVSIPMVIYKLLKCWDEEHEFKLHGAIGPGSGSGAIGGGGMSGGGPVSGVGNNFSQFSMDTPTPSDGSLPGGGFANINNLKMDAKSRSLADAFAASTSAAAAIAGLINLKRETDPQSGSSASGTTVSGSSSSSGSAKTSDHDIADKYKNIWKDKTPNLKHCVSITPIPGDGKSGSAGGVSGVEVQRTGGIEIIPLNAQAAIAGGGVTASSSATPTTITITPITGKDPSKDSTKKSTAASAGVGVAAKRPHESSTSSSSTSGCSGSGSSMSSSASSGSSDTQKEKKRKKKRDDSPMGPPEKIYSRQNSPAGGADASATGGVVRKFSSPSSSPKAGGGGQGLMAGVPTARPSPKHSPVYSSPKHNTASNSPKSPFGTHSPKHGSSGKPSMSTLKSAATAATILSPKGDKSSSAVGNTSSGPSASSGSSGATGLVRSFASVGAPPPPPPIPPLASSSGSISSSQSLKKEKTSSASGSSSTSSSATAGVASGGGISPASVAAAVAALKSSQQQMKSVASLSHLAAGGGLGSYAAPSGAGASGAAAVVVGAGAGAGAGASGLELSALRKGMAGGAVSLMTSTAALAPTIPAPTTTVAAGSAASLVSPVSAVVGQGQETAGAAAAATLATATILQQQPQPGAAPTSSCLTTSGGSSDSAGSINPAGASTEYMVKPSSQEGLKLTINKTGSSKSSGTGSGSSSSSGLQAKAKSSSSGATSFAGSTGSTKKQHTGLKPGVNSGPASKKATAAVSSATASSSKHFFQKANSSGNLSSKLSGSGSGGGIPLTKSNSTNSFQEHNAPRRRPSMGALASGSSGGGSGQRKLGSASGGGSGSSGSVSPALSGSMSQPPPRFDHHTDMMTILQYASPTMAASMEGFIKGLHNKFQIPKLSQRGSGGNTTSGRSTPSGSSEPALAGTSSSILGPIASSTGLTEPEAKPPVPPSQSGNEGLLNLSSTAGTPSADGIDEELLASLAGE

[8] = biological target: Myc-tagged Pnr (Drosophila) (UniProt P52168); assay: co-IP

binding [1]: binds
Molecule: in vitro-translated ^35S-Pnr (from UniProt P52168 1-540)

binding (Med19-VC (Drosophila) [2]): binds
Molecule: VN-Pnr (from UniProt P52168 1-540)

binding [1]: no binding
Molecule: Pnr N-terminal region (amino acids 1-137) (from UniProt P52168 1-137) (domain or fragment)

binding [1]: binds
Molecule: Pnr ZF-containing region (aa 130-278) (from UniProt P52168 130-278) (domain or fragment)

binding [3]: binds
Molecule: Myc-tagged Pnr (from UniProt P52168 1-540)

binding (Med19-VC (Drosophila) [4]): binds
B1: VN-tagged Srp (protein, UniProt P52172 1-1264)
chain: MTKTTKPKEKAAAGGAVIGSGSGLGSVTKAGGGSLLSNAADSKIRTAKSNNNKRQAGRAATALAATTTASALAATTTAGATGSNAAANETEIAIETENGEAATPTAAATAAAANLSSLESARSQALTSVVSETARQAVTTANASATSTSTVTAATEIATATASDTAATSEAAIDDDPSAINTNNNNNNSKAQNDASESVKTKVISYHQSEDQQQQQQQQAQIYEQQQQFLSQQLISHHQQEQHQQAQQQQHQQVVQEQHQASWLAYDLTSGSAAAAAAAAAAASHPHLFGQFSYPPSHHTPTQLYEHYPSTDPIMRNNFAFYSVYTGGGGGVGVGMTSHEHLAAAAAAAAAVAQGTTPNIDEVIQDTLKDECFEDGHSTDYHVLTSVSDMHTLKDSSPYALTHEQLHQQQHHHQQQLHHHQQQQQQLYHQQQQQQQQQQHHHHHNNSTSSAGGDSPSSSHALSTLQSFTQLTSATQRDSLSPENDAYFAAAQLGSSLQNSSVYAGSLLTQTANGIQYGMQSPNQTQAHLQQQHHQQQQQQHQQHQQQQLQQQQQQHHHNQHQHHNSSSSSPGPAGLHHSSSSAATAAAVAAATAAVNGHNSSLEDGYGSPRSSHSGGGGGGTLPAFQRIAYPNSGSVERYAPITNYRGQNDTWFDPLSYATSSSGQAQLGVGVGAGVVSNVIRNGRAISAANAAAAAAADGTTGRVDPGTFLSASASLSAMAAESGGDFYKPNSFNVGGGGRSKANTSGAASSYSCPGSNATSAATSAVASGTAATAATTLDEHVSRANSRRLSASKRAGLSCSNCHTTHTSLWRRNPAGEPVCNACGLYYKLHSVPRPLTMKKDTIQKRKRKPKGTKSEKSKSKSKNALNAIMESGSLVTNCHNVGVVLDSSQMDVNDDMKPQLDLKPYNSYSSQPQQQLPQYQQQQQLLMADQHSSAASSPHSMGSTSLSPSAMSHQHQTHPHQQQQQQLCSGLDMSPNSNYQMSPLNMQQHQQQQSCSMQHSPSTPTSIFNTPSPTHQLHNNNNNNNNSSIFNNNNNNNSSSNENNNKLIQKYLQAQQLSSSSNSGSTSDHQLLAQLLPNSITAAAAAAAAAAAAAIKTEALSLTSQANCSTASAGLMVTSTPTTASSTLSSLSHSNIISLQNPYHQAGMTLCKPTRPSPPYYLTPEEDEQPALIKMEEMDQSQQQQQQQQHQQQQHGEIMLSRSASLDEHYELAAFQRHQQQQQQLQQQTAALLGQHEQHVTNYAMHKFGVDRETVVKME

binding [5]: binds
B2: in vitro translated Med1^A (protein, UniProt Q9VP05 1-1475)
chain: T4 sequence
modifications: 35S-methionine labelled

binding [6]: binds | binding [7]: binds
B3: in vitro-translated full-length Med19 (protein, UniProt Q9VVL6 1-337)
chain: T1 sequence
modifications: 35S-methionine labelled

binding [8]: binds
B4: endogenous Drosophila Med19 (protein, UniProt Q9VVL6 1-337)
chain: T1 sequence
